Laboratory results from patent US11117871B2, “Crystalline forms of GSK1278863, preparation method and pharmaceutical use thereof” (GlaxoSmithKline Intellectual Property (No.2) Limited, priority 2017, dated 2021).
Some entries share one result that the patent states for a list of compounds.

Test: Stability of crystalline form in drug products (tablets)
Format: physicochemical
Conditions: mixed with excipients, 40° C./75% RH
Description: Form CS1 or Form CS9 of GSK1278863, microcrystalline cellulose, croscarmellose sodium and magnesium stearate were weighed according to formulation in Table 14 and blended for 2 minutes. The tablets were prepared using a manual tablet press at 5 KN±1 KN pressure with a φ7 mm round tooling. The tablets tablet weight is 100 mg±1 mg. The obtained tablets were packed in 35 cc HDPE bottles (one tablet per bottle) with 1 g desiccant. The bottles were sealed with a sealer.
The above obtained tablets were stored under 40° C./[…] condition for 1 month. […] The results are shown in Table 16, which indicate that Form CS1 and Form CS9 have good stability in the drug products.

O=C(O)CNC(=O)C1C(=O)N(C2CCCCC2)C(=O)N(C2CCCCC2)C1=O [Form CS1]
Time for which crystalline form in the drug products doesn't change: at least 1 months

O=C(O)CNC(=O)C1C(=O)N(C2CCCCC2)C(=O)N(C2CCCCC2)C1=O [Form CS9]
Time for which crystalline form in the drug products doesn't change: at least 1 months
